According to patent US20110214194A1 (priority 2005, published 2011):
For at least one compound, name, drawing or mass did not settle the structure.

Test system: peritoneal macrophages
Assay type: cell-based, mouse

CCOCc1nc2c(N)nc3ccccc3c2n1CC(C)(C)O [Resiquimod]
TNF production in response to the inducer: effect of the Heedless mutation: normal
